Results on 66 molecules are retold here after PubChem BioAssay AID901 (National Center for Advancing Translational Sciences (NCATS), 2007).

The other results are listed elsewhere or left out. These are further read-outs of the screen, such as a control signal, another cell line or another target. No call is given for them. Compounds called inactive in the main read-out are mostly missing here. Potencies come from curve fits of mixed quality, noted in brackets.

The nature of the assay: qHTS Assay for Identifying the Cell-Membrane Permeable IMPase Inhibitors. Particulars: CHO-M1 cells, IP1 accumulation, HTRF TR-FRET ratio; measured here: donor channel 620 nm AC50. The text has this: NCGC IMPase Assay Overview
Lithium has been widely used for the treatment of bipolar disorder. But lithium has a narrow therapeutic index and it can cause side effects such as thirst, weight gain, tremor, polyuria and memory problems. Although the mechanism for lithium action in treatment of bipolar disorder is still not fully understood, inhibition of inositol monophosphatase (IMPase) and the subsequent depletion of the inositol pool in living cells have been implicated as the primary therapeutic benefit of lithium therapy. Therefore, a selective IMPase inhibitor with reduced side effects might be a good drug candidate to replace lithium for the treatment of bipolar disorder. Several IMPase inhibitors have been discovered previously. However, they are not suitable for therapeutic use because of their poor cell membrane penetrability or oral bioavailability; the development of new cell-permeable IMPase inhibitors is needed.
IMPase catalyzes the hydrolysis of inositol-1-phosphate (IP1) to release free inositol. Binding of an agonist to a Gq coupled GPCR results in the activation of PLC, which hydrolyzes the PIP2 to form inositol-1,4,5-trisphosphate (IP3) and diacyl glycerol (DAG). While DAG activates protein kinase C (PKC), IP3 triggers the elevation of intracellular free Ca2+. The IP3 is very rapidly inactivated by hydrolysis to IP2, IP1 and then inositol by a series of enzymes including IMPase. Free inositols are used for synthesis of PI and thus start another inositol cycle.
To identify new cell-permeable IMPase inhibitors, we developed a cell-based IMPase assay in which the cytosolic IP1 is measured by a time-resolved fluorescence resonance energy transfer (TR-FRET) assay. In this assay, an IP1 specific antibody is used to detect the labeled IP1 tracer. When the cell lysate contains the elevated IP1 due to the inhibition of IMPase, the TR-FRET between the labeled antibody and IP1 tracer is disrupted resulting in a reduction in the total signal. Since the TR-FRET is used, this cell-based assay is a homogenous assay without cell wash and medium change that is suitable for assay miniaturization and HTS.
NCGC IMPase Assay Protocol Summary
A Chinese hamster ovary (CHO) cell line stably expressing the M1 receptor (CHO-M1) was obtained from ATCC and maintained in F-12 Kaighn's media (Invitrogen, Carlsbad, CA, 21127) supplemented with 10 % FBS, 100 units/ml penicillin, 100 ug/ml streptomycin and 250 ug/ml geneticin at 37C, 5% CO2 in a humidified atmosphere. Before the assay, aliquots of cells were frozen and stored at -135C. The assay was performed in 1536-well format. Data are reported for both the ratio of the two emission wavelengths, and also for the component 'donor' channel, Em2=620. […] AC50 values were determined from concentration-response data modeled with the standard Hill equation.
IMPase 1536-well assay protocol:
(1) Plate 4 ul/well (2000 cells) of cell suspension from frozen CHO-M1 Cells in white, tissue culture treated 1536-well plates that are cultured at 37C, 5 % CO2 for 16 to 30 hours.
(2) Add 23 nl/well of compound in DMSO solution. The final titration for each compound was between 0.6 nM and 46 uM.
(3) Add 1 ul of carbachol (50 uM in stimulation buffer containing10mM HEPES, 1mM CaCl2, 0.5 mM MgCl2, 4.2 mM KCl, 146 mM NaCl, 5.5 mM glucose, 50mM LiCl, pH 7.4.
(4) Incubation at 37C, 5 % CO2 for 30 min.
(5) Add 1 ul/well of d2-conjugated IP1 (d2-IP1) and 1 ul/well of Eu+ cryptate conjugated anti-IP1 antibody (Eu+-Ab) prepared in the cell lysis buffer, both from the IP-One kit (Cisbio, MA).
(6) Incubate at room temperature for 10 minutes.
(7) Detect the assay plate (Ex = 320, Em1 =665 and Em2 620) in a ViewLux plate reader.
inositol monophosphatase, IMPase, IMPase inhibitor, lithium, bipolar disorder, IP-One, HTRF, qHTS, NIH roadmap, NCGC
Note: In the gene ID and protein GI references for this assay, rat IMPase is referenced instead of hampster as hamster accession numbers were not available.
Consider `Nc1ccc2c(c1)C(=O)C(=O)c1ccccc1-2`, for which the AC50 is 12600 nM [falling, partial curve].

On to `COc1ccc(OC)c(S(=O)(=O)Nc2cc(OC)c(Cl)cc2OC)c1`, for which the AC50 was 14.1 nM [falling, full curve, poor fit].

On to `CCOC(=O)c1cccnc1SCC(=O)NC(C)CC` (stereo unspecified), for which the AC50 was 1000 nM [falling, full curve].

For the molecule `CCC1CCc2sc(C(=O)O)cc2C1` (stereo unspecified), the AC50 was 7.94 nM [rising, full curve, poor fit].

On to `Cc1nc(N(C)C)c2sc(=S)n(C)c2n1`, for which the half-maximal activity concentration (AC50) was 31600 nM [rising, single point].

On to `COc1ccc(S(=O)(=O)Nc2cccc(N(C)S(C)(=O)=O)c2)cc1Br`, for which the AC50 is 31.6 nM [falling, full curve, poor fit].

For the molecule `Cc1cc(C)c(S(=O)(=O)NCCc2cc3ccc(C)c(C)c3[nH]c2=O)c(C)c1`, the AC50 is 14.1 nM [rising, full curve, poor fit].

As for `O=C(Nc1cc(C(F)(F)F)ccc1N1CCCCC1)c1cccc([N+](=O)[O-])c1`, the AC50 is 3160 nM [rising, full curve].

As for `CC(=O)C1C(=O)C=C(c2ccco2)CC1c1ccccc1` (stereo unspecified), the concentration at half-maximal activity (AC50) was 35500 nM [falling, single point].

Consider `COc1ccc(NC(=O)Cn2c(=O)n(Cc3ccccc3Cl)c(=O)c3cc(OC)c(OC)cc32)cc1`, for which the AC50 was 5620 nM [rising, single point].

As for `CCN(CC)CCN1C(=O)C(=O)/C(=C(/O)c2c(C)[nH]c(C(=O)OC)c2C)C1c1ccco1` (stereo unspecified), the AC50 is 251 nM [falling, full curve, poor fit].

Take `CCOC(=O)C1=C(C)NC2=C(C(=O)CCC2)C1c1ccsc1` (stereo unspecified): the AC50 was 1000 nM [falling, single point].

Regarding `CCCC(=O)NC(Nc1ccc(S(=O)(=O)Nc2ncccn2)cc1)(C(=O)OCC)C(F)(F)F` (stereo unspecified), the concentration at half-maximal activity (AC50) was 1260 nM [falling, full curve, poor fit].

Regarding `CCCCOc1cccc(-c2nnc(NC(=O)CSc3ccc(C)cc3)s2)c1`, the concentration at half-maximal activity (AC50) is 50.1 nM [falling, full curve, poor fit].

Take `COCCCn1cnc2c(c1=O)c1nc3ccccc3nc1n2CCc1ccccc1`: the AC50 is 6310 nM [falling, single point].

As for `O=C(Cn1cnc2c(oc3ccccc32)c1=O)N1CCN(c2ccccc2)CC1`, the AC50 is 708 nM [falling, partial curve].

Take `CC(C)Cn1c(=O)c2c(c3ccccc31)OC(C)C(=O)N2` (stereo unspecified): the AC50 is 5010 nM [falling, single point].

As to `C=CCn1c(=O)[nH]c2cc(C(=O)N3CCN(c4cccc(Cl)c4)CC3)ccc2c1=O`, the AC50 is 2510 nM [falling, partial curve].

As for `O=C(NCCO)c1cccc(S(=O)(=O)N2CCCCC2)c1`, the AC50 is 25.1 nM [rising, full curve, poor fit].

Regarding `CC1=NOC(=O)/C1=C/c1ccc(N(C)C)cc1`, the AC50 was 2000 nM [rising, full curve, poor fit].

As to `COCCNC(=O)CSc1nnc2c(Cl)cc(Cl)cn12`, the AC50 was 3160 nM [rising, full curve, poor fit].

`Cc1ccc(C)c(NC(=O)C(C)N(c2ccccc2)S(C)(=O)=O)c1` (stereo unspecified): the AC50 was 562 nM [falling, full curve, poor fit].

In the case of `Cc1ccc(S(=O)(=O)NCC(=O)Nc2ccc(C(F)(F)F)cc2)cc1`, the concentration at half-maximal activity (AC50) was 794 nM [falling, full curve, poor fit].

Regarding `CC(C)N(c1nnc(N)s1)C(C)C`, the AC50 was 31600 nM [falling, single point].

In the case of `COc1ccccc1NC(=O)CN(C)S(=O)(=O)c1ccc(F)cc1`, the AC50 was 35500 nM [rising, single point].

For the molecule `CC1(C)c2ccccc2N2CC(=O)N(CC(N)=O)C21C` (stereo unspecified), the AC50 is 50.1 nM [falling, full curve, poor fit].

In the case of `Cc1cccc(OCc2nnc(SCC(=O)Nc3cc(C)on3)n2C)c1`, the AC50 is 5010 nM [falling, full curve, poor fit].

Turning to `CC(C)c1nc(SCC(=O)N2c3ccccc3CC2C)c2ccccc2n1` (stereo unspecified), the AC50 was 31.6 nM [falling, full curve, poor fit].

With `COc1ccccc1Nc1nc(-c2sc(NC(=O)C(C)(C)C)nc2C)cs1`, the AC50 is 100 nM [rising, full curve, poor fit].

`COc1ccc2c(c1)c(CC(=O)O)c(C)n2Cc1ccc(F)cc1`: the AC50 is 3.98 nM [falling, full curve, poor fit].

In the case of `COc1cc2c(cc1NC(=S)Nc1cccc(C)c1)oc1ccccc12`, the AC50 was 79.4 nM [falling, full curve, poor fit].

Consider `COc1cc2ccc(=O)oc2c(O)c1O`, for which the AC50 is 25100 nM [falling, partial curve].

As for `O=C(Nc1ccccc1Cl)N1CCN(c2ccccn2)CC1`, the AC50 was 794 nM [falling, full curve].

`Cc1noc(/C=C/N(C)C)c1S(=O)(=O)N1CCCC(C(=O)NC2CCCCC2)C1` (stereo unspecified): the AC50 was 3980 nM [rising, single point].

For `COc1cc(NC(=S)NC(=O)c2ccc(C)cc2C)ccc1NC(=O)c1cccs1`, the concentration at half-maximal activity (AC50) is 12600 nM [rising, partial curve].

With `Cc1cccc(-c2c3c(=O)n(C)c(=O)n(C)c3c3cnc4ccccc4n23)c1`, the AC50 was 5.01 nM [rising, full curve].

Turning to `COc1ccc2[nH]c3c(=O)n(CCCCC(=O)N4CCC(C(N)=O)CC4)c(=S)[nH]c3c2c1`, the AC50 was 5010 nM [rising, single point].

For the molecule `O=C(CCCO)c1ccc2c(c1)OCCO2`, the AC50 is 501 nM [falling, full curve, poor fit].

As for `COC(=O)c1ccc(NC(=O)COC(=O)CSc2nc(C)cc(C)n2)cc1`, the AC50 was 3160 nM [rising, partial curve].

Consider `Cc1cc(C(F)F)n2ncc(C(=O)NCc3ccccc3)c2n1`, for which the AC50 is 5.01 nM [falling, full curve, poor fit].

In the case of `O=C(CCC1N=C2c3ccccc3N=C(SCC(=O)Nc3ccccc3F)N2C1=O)NCc1cccs1` (stereo unspecified), the half-maximal activity concentration (AC50) is 31600 nM [rising, single point].

For `CCOC(=O)n1c(=O)n(Cc2ccccc2)c2ccccc21`, the AC50 is 631 nM [rising, full curve, poor fit].

As for `CCCN(C(=O)Cc1c(C(=O)O)[nH]c2ccc(Cl)cc12)c1ccc(OCC)cc1`, the AC50 is 28.2 nM [falling, full curve, poor fit].

`CCCCCn1c(CCNC(=O)CCC)nc2ccccc21`: the AC50 is 5010 nM [rising, partial curve].

On to `COc1ccc(OC)c(C2C(C(=O)c3cc4ccccc4o3)=C(O)C(=O)N2c2cc(C)on2)c1` (stereo unspecified), for which the AC50 was 12600 nM [rising, partial curve].

Turning to `O=C(NC1=NCCS1)C1COc2ccccc2O1` (stereo unspecified), the AC50 is 31600 nM [falling, single point].

Turning to `N#Cc1c(C(F)(F)F)cc(-c2ccc(Cl)c(Cl)c2)nc1SCCN1CCOCC1`, the AC50 was 31.6 nM [rising, full curve, poor fit].

Regarding `Cc1nc2ccc(NC(=S)N3CCN(c4ccccn4)CC3)cc2nc1C`, the AC50 is 31600 nM [rising, single point].

As for `Cc1ccc(CN(C)C(=O)C2CCCN2C(=O)c2cccs2)o1` (stereo unspecified), the AC50 was 316 nM [falling, full curve].

Regarding `C[N+](C)(C)CCCC(=O)c1ccc2c(c1)OCO2`, the half-maximal activity concentration (AC50) was 12600 nM [falling, partial curve].

For `Cc1ccc2cc(C(c3nnnn3C(C)(C)C)N3CCCCCC3)c(=O)[nH]c2c1` (stereo unspecified), the AC50 was 794 nM [rising, single point].

On to `O=c1cc(CSc2nnc(-c3ccco3)o2)c2ccccc2[nH]1`, for which the AC50 is 31600 nM [falling, single point].

For the molecule `CC(C)n1c(SCc2cc(=O)[nH]c3ccccc23)nc2c1c(=O)n(C)c(=O)n2C`, the AC50 is 3160 nM [falling, partial curve, poor fit].

Turning to `O=C(Cc1ccccc1)Nc1nc(=O)c2ccccc2s1`, the AC50 is 31600 nM [rising, single point].

Regarding `O=C(Nc1nc(-c2nc3ccccc3s2)cs1)C1COc2ccccc2O1` (stereo unspecified), the AC50 was 22400 nM [rising, single point].

Regarding `CCOC(=O)Cc1cnc(NC(=O)Cn2nnc(-c3ccc(OCC)cc3)n2)s1`, the AC50 was 20000 nM [falling, partial curve, poor fit].

With `COC(=O)c1ccc(CC(=O)c2ccc(O)cc2O)o1`, the AC50 is 5.01 nM [falling, full curve, poor fit].

In the case of `CCOC(=O)c1nnc(-c2ccccc2)nc1Oc1ccccc1Cl`, the AC50 is 20000 nM [falling, single point].

As for `CCOC(=O)c1nc(Nc2ccc(C(=O)OC)cc2)c2ccccc2n1`, the AC50 is 25100 nM [rising, single point].

As for `Nc1ccc2nc(-c3ccc(O)cc3)sc2c1`, the AC50 was 11200 nM [rising, single point].

For `CCCCNc1cc(=O)n(C)c(=O)n1C`, the AC50 is 31600 nM [falling, single point].

Turning to `CCc1cccc(C)c1NC(=O)C(c1ccc(O)cc1)N1CCC1=O` (stereo unspecified), the AC50 is 1580 nM [rising, partial curve].

Regarding `Cc1nnc(SCC(=O)N2CCC(C(N)=O)CC2)s1`, the AC50 is 316 nM [rising, partial curve].

On to `O=C(CN1CCN(c2ccccn2)CC1)Nc1cc(C(F)(F)F)ccc1Cl`, for which the AC50 is 25.1 nM [rising, full curve, poor fit].

With `CN(C)Cc1c(O)c(Cl)cc2c3c(c(=O)oc12)CCCC3`, the AC50 was 2510 nM [rising, partial curve].

For the molecule `Cc1ccc(NC(=O)c2cccc(N3C(=O)C4C5CCC(C5)C4C3=O)c2)c(C)c1` (stereo unspecified), the concentration at half-maximal activity (AC50) was 35500 nM [rising, single point].
